Measured values published in PMC12115080.
No constants are given. Whether binding was seen depends on the method and setting. In cells and extracts the contact can be indirect. Some binding calls cover weakened binding; strength is not graded here. Tags and fused reporters may be left off the sequences shown.

Biological target: T1, AtBIK1 fused to the N-terminal fragment of YFP (Arabidopsis thaliana) (UniProt O48814)
T1 sequence: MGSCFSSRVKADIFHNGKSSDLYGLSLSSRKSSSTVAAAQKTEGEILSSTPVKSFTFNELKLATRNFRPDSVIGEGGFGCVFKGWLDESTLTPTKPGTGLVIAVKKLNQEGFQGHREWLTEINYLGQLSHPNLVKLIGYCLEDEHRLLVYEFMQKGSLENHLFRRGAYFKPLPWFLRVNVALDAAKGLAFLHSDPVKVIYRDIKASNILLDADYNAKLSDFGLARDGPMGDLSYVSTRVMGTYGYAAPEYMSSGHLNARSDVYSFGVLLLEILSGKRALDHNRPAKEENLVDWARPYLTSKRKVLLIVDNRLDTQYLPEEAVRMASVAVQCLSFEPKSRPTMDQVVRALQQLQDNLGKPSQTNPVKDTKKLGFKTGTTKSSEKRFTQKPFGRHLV
Assay: split reporter; BiFC: RLCKs fused with YFPc co-infiltrated into Nicotiana benthamiana leaves with AtBIK1 fused to YFPn; YFP fluorescence by confocal microscopy 48 h after infiltration

binding: binds
B1: At3g07070 fused with the C-terminal fragment of YFP (protein, UniProt Q9SFT7 1-414)
chain: MNCFSCFYFHEKKKVPRDSDNSYRRNGEVTGRDNNKTHPENPKTVNEQNKNNDEDKEVTNNIAAQTFSFRELATATKNFRQECLIGEGGFGRVYKGKLEKTGMIVAVKQLDRNGLQGNKEFIVEVLMLSLLHHKHLVNLIGYCADGDQRLLVYEYMSRGSLEDHLLDLTPDQIPLDWDTRIRIALGAAMGLEYLHDKANPPVIYRDLKAANILLDGEFNAKLSDFGLAKLGPVGDKQHVSSRVMGTYGYCAPEYQRTGQLTTKSDVYSFGVVLLELITGRRVIDTTRPKDEQNLVTWAQPVFKEPSRFPELADPSLEGVFPEKALNQAVAVAAMCLQEEATVRPLMSDVVTALGFLGTAPDGSISVPHYDDPPQPSDETSVEDSVAAEERERAVAEAMEWGVASRAHSRNPSAS
